No constants are given. Whether binding was seen depends on the method and setting. In cells and extracts the contact can be indirect. Here binding means that the protein was enriched with, or labelled near, the bait; the list need not be complete.
Molecular target: T1, CCDC28B overexpressed from pCS2+_CCDC28B (human) (UniProt Q9BUN5)
T1 sequence: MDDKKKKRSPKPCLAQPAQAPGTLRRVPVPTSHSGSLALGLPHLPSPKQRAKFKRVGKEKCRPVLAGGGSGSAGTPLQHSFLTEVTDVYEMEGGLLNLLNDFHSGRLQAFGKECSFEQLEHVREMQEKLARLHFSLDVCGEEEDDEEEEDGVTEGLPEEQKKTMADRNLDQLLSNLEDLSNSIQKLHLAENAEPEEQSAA
Assay: affinity purification with mass spectrometry; Hek293 transfected with pCS2+_CCDC28B; biotinylated anti-CCDC28B VHH on Streptavidin-Agarose; SDS-PAGE, silver stain, main bands cut and analysed by mass spectrometry; irrelevant VHH as control

Protein sequences, listed by entry. Tags and fused reporters are not part of them.
UniProt P33176: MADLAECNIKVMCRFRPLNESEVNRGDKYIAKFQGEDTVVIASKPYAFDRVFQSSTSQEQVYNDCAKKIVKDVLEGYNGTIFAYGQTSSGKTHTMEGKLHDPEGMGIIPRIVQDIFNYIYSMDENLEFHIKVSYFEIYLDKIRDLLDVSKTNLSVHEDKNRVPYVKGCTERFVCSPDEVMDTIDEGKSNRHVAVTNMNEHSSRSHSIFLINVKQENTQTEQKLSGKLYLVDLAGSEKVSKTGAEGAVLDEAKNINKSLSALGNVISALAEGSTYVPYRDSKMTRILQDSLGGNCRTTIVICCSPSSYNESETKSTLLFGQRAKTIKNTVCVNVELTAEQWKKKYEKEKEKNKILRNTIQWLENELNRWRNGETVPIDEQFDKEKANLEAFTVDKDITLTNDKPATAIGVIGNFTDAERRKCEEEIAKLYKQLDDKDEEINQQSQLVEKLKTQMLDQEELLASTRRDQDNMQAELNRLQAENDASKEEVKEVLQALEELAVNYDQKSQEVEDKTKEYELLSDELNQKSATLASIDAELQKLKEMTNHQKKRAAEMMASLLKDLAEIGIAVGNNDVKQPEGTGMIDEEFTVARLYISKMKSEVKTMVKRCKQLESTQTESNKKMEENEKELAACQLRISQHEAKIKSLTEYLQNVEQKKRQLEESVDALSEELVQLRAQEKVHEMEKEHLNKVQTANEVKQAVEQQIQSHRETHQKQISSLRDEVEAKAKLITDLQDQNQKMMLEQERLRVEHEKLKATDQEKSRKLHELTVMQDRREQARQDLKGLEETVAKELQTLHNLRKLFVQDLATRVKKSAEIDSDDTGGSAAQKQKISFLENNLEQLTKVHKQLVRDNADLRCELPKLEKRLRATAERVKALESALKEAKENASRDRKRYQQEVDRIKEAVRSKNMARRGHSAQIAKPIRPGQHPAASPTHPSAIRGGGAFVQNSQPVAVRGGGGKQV

Row | binding | Substance
1 | binds | kinesin 1 heavy chain KIF5B (from UniProt P33176 1-963)
2 | binds | α/β-tubulin (human (endogenous in Hek293)) (complex)

From PMC5813027
